Measured values as given in patent US20050106141A1, “Hairless protein-interacting partner complexes and methods thereof for the beautification and/or improvement of mammalian skin” (The Procter & Gamble Company, priority 2003, published 2005).
No constants are given. Whether binding was seen depends on the method and setting. Some entries that bind do so weakly or less than the wild type. Tags and fused reporters may be left off the sequences shown.

Protein sequences, listed by entry. Tags and fused reporters are not part of them. Lines headed by an entry give the natural chain unless they say otherwise; changes in a name come on top.
UniProt P04386: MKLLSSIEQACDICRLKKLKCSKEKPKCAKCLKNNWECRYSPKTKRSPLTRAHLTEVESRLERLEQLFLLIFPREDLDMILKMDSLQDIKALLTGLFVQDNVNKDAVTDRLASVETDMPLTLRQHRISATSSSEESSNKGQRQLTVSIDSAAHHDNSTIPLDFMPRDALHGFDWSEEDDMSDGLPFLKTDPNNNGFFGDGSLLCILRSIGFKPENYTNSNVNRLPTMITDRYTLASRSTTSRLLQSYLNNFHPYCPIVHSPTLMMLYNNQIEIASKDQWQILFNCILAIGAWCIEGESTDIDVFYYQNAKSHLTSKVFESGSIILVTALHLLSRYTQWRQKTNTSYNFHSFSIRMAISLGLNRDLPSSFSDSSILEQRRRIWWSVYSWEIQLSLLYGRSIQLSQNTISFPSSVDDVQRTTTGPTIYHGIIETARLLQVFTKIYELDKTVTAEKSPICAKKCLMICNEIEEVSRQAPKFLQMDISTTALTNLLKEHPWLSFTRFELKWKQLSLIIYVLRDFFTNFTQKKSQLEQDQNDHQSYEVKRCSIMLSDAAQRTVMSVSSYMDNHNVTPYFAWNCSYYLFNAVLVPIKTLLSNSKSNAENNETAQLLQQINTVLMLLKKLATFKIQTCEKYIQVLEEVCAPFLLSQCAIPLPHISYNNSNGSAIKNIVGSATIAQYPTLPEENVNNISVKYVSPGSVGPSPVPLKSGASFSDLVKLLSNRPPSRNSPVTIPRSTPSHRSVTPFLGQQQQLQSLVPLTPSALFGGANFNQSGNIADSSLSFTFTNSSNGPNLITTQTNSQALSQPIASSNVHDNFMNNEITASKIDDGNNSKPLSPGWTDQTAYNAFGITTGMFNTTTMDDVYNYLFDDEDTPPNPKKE

How the values were obtained:
AD-HRt(mouse) (mouse) [1] = molecular target: T1, AD-HRt(mouse) (mouse) (UniProt Q61645); assay: yeast two-hybrid, directed test AD-HRt(mouse) with BD-VDR(mouse)
T1 sequence (looked up): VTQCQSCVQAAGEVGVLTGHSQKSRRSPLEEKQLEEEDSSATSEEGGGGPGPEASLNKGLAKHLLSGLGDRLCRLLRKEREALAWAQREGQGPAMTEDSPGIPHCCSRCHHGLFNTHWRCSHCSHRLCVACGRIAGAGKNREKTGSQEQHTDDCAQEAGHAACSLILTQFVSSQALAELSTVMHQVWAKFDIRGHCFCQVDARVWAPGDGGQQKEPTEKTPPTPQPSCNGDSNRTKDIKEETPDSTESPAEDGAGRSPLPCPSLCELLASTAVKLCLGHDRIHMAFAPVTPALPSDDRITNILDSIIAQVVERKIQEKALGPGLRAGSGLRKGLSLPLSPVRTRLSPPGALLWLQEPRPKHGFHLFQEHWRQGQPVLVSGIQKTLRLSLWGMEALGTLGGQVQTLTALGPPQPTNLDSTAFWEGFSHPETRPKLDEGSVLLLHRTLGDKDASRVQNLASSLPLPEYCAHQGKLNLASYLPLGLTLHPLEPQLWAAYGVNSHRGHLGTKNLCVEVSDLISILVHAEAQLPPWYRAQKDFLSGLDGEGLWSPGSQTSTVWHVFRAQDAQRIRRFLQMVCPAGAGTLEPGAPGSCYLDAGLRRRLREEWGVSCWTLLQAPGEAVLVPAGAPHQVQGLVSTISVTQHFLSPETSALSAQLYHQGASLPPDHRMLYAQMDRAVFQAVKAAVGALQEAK

AD-HRt(mouse) (mouse) [2] = molecular target: T1, AD-HRt(mouse) (mouse); assay: yeast two-hybrid, directed test

binding (AD-HRt(mouse) (mouse) [1]): binds | binding (AD-HRt(mouse) (mouse) [2]): binds
Substance: BD-VDR(mouse) (from UniProt P04386 1-147; P48281 1-422) (receptor)
